Measurements published in PMC6289461, “Mek1 coordinates meiotic progression with DNA break repair by directly phosphorylating and inhibiting the yeast pachytene exit regulator Ndt80”.

Sequences of proteins named here, by UniProt entry; tags and fusion partners are left off. A change or cut given only in a name is not applied to a line headed by its entry.
UniProt P38830: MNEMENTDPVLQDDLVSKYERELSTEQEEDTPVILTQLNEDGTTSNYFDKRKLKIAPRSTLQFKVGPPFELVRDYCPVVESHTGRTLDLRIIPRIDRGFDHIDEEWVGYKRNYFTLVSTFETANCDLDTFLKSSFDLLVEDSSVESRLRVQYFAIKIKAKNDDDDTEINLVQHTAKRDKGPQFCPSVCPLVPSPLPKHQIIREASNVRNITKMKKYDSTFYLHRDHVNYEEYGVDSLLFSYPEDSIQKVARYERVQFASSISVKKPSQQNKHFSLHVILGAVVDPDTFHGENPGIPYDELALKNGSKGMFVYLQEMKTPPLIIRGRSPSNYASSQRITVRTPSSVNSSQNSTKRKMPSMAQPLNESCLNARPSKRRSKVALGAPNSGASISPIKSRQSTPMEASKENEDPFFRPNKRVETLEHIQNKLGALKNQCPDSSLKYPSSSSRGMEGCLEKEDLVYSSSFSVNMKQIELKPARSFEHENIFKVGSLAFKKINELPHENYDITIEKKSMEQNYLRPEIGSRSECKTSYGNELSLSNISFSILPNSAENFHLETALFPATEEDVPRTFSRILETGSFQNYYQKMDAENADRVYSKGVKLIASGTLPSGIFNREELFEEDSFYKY

Molecular target: T1, lexA-Mek1 (yeast) (UniProt P24719)
T1 sequence: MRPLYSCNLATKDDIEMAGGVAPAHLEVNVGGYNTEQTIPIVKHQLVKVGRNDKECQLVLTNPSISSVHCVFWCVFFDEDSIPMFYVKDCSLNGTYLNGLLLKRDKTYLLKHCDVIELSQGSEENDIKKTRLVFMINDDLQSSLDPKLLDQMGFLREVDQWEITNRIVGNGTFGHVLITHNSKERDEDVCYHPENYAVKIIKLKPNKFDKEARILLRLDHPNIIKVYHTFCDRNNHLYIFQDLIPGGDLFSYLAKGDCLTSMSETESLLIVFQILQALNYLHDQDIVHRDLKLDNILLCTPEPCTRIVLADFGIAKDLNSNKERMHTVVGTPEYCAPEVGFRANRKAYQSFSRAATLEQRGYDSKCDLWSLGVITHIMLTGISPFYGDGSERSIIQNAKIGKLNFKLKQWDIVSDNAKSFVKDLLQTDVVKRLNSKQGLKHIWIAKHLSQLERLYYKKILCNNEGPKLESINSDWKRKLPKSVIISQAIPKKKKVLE
Assay: two-hybrid; directed test: lexA and GAD plasmids co-transformed into L40; ten-fold dilutions spotted on SD-Leu-Trp-His (HIS3) and beta-galactosidase filter assay (lacZ), 30°C

Substance | binding
GAD-NDT80-Δbc (from UniProt P38830) (domain or fragment) | no binding
GAD-NDT80-ΔRPSKR (from UniProt P38830) (domain or fragment) | no binding

No constants are given. Whether binding was seen depends on the method and setting.
